Measured values as given in PubChem BioAssay AID504842 (National Center for Advancing Translational Sciences (NCATS), 2011).
Screen size: about 330,000 compounds; about 100 (0.03%) were called active. The shares of active, inactive and inconclusive entries below differ from those in the screen. Calls come from the whole dose curve; as a rule, active = well fitted inhibition curve with a large enough effect; inconclusive = small, poorly fitted or top-dose-only effect; inactive = flat fitted curve, though single readings scatter. Where the call is inconclusive, the potency comes from a doubtful curve fit.

test system: Chaperonin Mm-Cpn (Methanococcus maripaludis); test: Inhibitors of TCP-1 ring complex (TRiC) of Methanococcus maripaludis (MmCpn): qHTS; conditions: purified Mm-Cpn ATPase, ADP Transcreener TR-FRET; activity, negative = inhibition: at the top concentration; note: nearly all actives have a fitted effect of over 80% in size;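 for potency: enzyme at 25 nM with ATP substrate at 10 µM during the reaction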
Summary of the method: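 Inhibition of chaperonin ATP hydrolysis is measured as reduced ADP production, detected by competitive TR-FRET in which signal falls with ADP. Final enzyme 25 nM and ATP 10 uM, reacted 30 min at 37°C.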
% is set by controls: 0 for no effect and ±100 for the full control effect; potency is the fitted concentration of half-maximal effect.

Potency, inconclusive:
CC1(C)NC(=O)N(CC(=O)Nc2cc(C(F)(F)F)cc(C(F)(F)F)c2)C1=O 56.2 µM [inhibitor, single point], COc1cccc(CN(C)C(=O)c2ccc(S(=O)(=O)N3CCCC3)cc2)c1OC 100 µM [inhibitor, single point], COc1ccc(C2CC(c3cccc(Br)c3)=NN2c2ccc(S(N)(=O)=O)cc2)cc1 (stereo unspecified) 22.4 µM [inhibitor, single point], Cc1cc(Nc2ccccc2)n(CCOC(=O)COc2ccccc2)n1 35.5 µM [inhibitor, single point], COC(=O)c1c(-c2ccccc2)csc1NC(=O)c1c(-c2ccccc2)noc1C 447 µM [inhibitor, partial curve, poor fit], COc1cc(C(=O)NCC(c2ccco2)N2CCCC2)ccc1OCc1ccccc1 (stereo unspecified) 63.1 µM [inhibitor, single point], Fc1ccc(N2Cc3ccsc3C=N2)cc1 17.8 µM [inhibitor, single point], CCOCCc1c(O)nc(SCCOc2ccc(C)c(C)c2)[nH]c1=O 22.4 µM [inhibitor, single point], Cc1cc(N2CCC(C)CC2)nc(-c2ccccc2O)n1 70.8 µM [inhibitor, single point], CN(C(=O)CSc1nnc(-c2ccccc2)o1)c1c(N)n(Cc2ccccc2)c(=O)[nH]c1=O 79.4 µM [inhibitor, single point], CC(=O)Nc1ccc(S(=O)(=O)N2CCCC3CCCCC32)cc1 (stereo unspecified) 79.4 µM [inhibitor, single point], CS(=O)(=O)Nc1ccccc1C(=O)OCC(=O)N1CCC(c2ccccc2)=N1 562 µM [inhibitor, partial curve, poor fit], CCN(CC)c1ccc2nc3ccccc3[n+](CC)c2c1 25.1 µM [inhibitor, partial curve, poor fit], COc1ccc(CC(=O)NCc2nnc(SCC(=O)Nc3nccs3)n2C)cc1 28.2 µM [inhibitor, single point], Cc1csc(NC(=O)c2ccc(Br)s2)n1 22.4 µM [inhibitor, single point], O=C(c1ccco1)N1CCN(C(=O)c2ccc(-c3ccc([N+](=O)[O-])cc3)o2)CC1 50.1 µM [inhibitor, single point], CCc1ccc(NC(=S)N(CCCN2CCOCC2)Cc2ccco2)cc1 100 µM [inhibitor, single point], CCOC(=O)/C(C#N)=C1/SC(CC)C(=O)N1c1ccc(Br)cc1 (stereo unspecified) 100 µM [inhibitor, single point], COc1cccc(NC(=O)CSc2nc3ccccc3nc2N2CCCC2)c1 112 µM [inhibitor, partial curve], C=CCn1c2ccccc2c(=O)c2cc(C#Cc3ccccn3)ccc21 50.1 µM [inhibitor, single point], COc1ccc(-c2sc3ccc(OC)cc3c2-c2ccc(O)cc2)cc1 56.2 µM [inhibitor, partial curve, poor fit], OCCNCCCCCOc1ccc(F)cc1 70.8 µM [inhibitor, single point], O=C(CC(C(=O)O)c1c(F)cccc1Cl)c1ccc(Cl)cc1 (stereo unspecified) 282 µM [inhibitor, partial curve, poor fit], CCCn1c(SCC(=O)c2ccc3c(c2)OCCO3)n[nH]c1=O 28.2 µM [inhibitor, single point], O=C(CSc1nc2nc3c(cc2c(=O)n1-c1ccccc1)CCCC3)Nc1ccccc1 100 µM [inhibitor, partial curve, poor fit], O=C(CCNC(=O)c1ccc([N+](=O)[O-])cc1)NCCC1=CCCCC1 79.4 µM [inhibitor, single point], Cc1nn(-c2ccccc2)c(Cl)c1/C=N/N1CCN(c2ccccn2)CC1 100 µM [inhibitor, partial curve, poor fit], COc1ccc(CN2CCCC(C(=O)N3CCCCC3)C2)cc1OC (stereo unspecified) 89.1 µM [inhibitor, single point], COc1cccc(NC(=O)COc2cc(C)cc3oc(=O)cc(C)c23)c1 22.4 µM [inhibitor, single point], COC(=O)c1ccc(C2NC(=S)N(c3ccccc3)C(C)=C2C(=O)Nc2ccccc2OC)cc1 (stereo unspecified) 70.8 µM [inhibitor, single point], COc1ccc(CC(=O)Nc2ccc(S(=O)(=O)N3CCOCC3)cc2)cc1 22.4 µM [inhibitor, single point], O=C(Nc1ccccc1OC(F)F)c1cccc(S(=O)(=O)N2CCCC2)c1 89.1 µM [inhibitor, single point], COCCNc1nnc(SC(C)C(=O)Nc2ccc(-c3nc4ccc(C)cc4s3)cc2)s1 (stereo unspecified) 112 µM [inhibitor, partial curve, poor fit], COc1ccc2sc(-c3ccccc3OC)c(-c3ccc(OCCN(C)C)cc3)c2c1 112 µM [inhibitor, partial curve], O=C(/C=C/c1ccccc1)c1cc(Br)ccc(=O)c1O 15.8 µM [inhibitor, single point], COc1cc(C(Nc2ccc(S(=O)(=O)N3CCC(C)CC3)cc2)C(=O)NCC2CCCO2)cc(OC)c1OC (stereo unspecified) 70.8 µM [inhibitor, single point], Cc1c(/C(O)=C2\C(=O)C(=O)N(CCN(C)C)C2c2ccccc2)cnn1-c1ccccc1 (stereo unspecified) 22.4 µM [inhibitor, single point], CN1CCN(c2ccc([N+](=O)[O-])cc2NC(=O)c2ccco2)CC1 10 µM [inhibitor, single point], CCOC(=O)[C@H]1CCC[C@@H](NS(=O)(=O)c2ccc(NC(C)=O)cc2)C1 200 µM [inhibitor, partial curve, poor fit], Clc1ccc(-c2ccnc(Oc3ccc4ccccc4c3)n2)cc1 20 µM [inhibitor, single point], COc1ccc(CS(=O)/C(Cl)=C(/Cl)C(=O)Nc2ccc(OC)nc2)cc1 (stereo unspecified) 79.4 µM [inhibitor, single point], Cc1cc(C(=O)O)ccc1NCc1ccncc1 200 µM [inhibitor, partial curve, poor fit], Cc1cc(CNC(=O)COc2ccc(F)cc2Cl)cc(C)c1O 100 µM [inhibitor, single point], CC(/C=N/NC(=O)c1cc(-c2ccc(Cl)cc2)nc2ccccc12)=C\c1ccco1 70.8 µM [inhibitor, single point], CCOC(=O)N1CCC(NC(=O)C2CCN(S(=O)(=O)c3c(C)noc3C)CC2)CC1 112 µM [inhibitor, partial curve, poor fit], Cc1c(C(=O)NCc2ccc3c(c2)cc(C)n3C)cccc1[N+](=O)[O-] 100 µM [inhibitor, single point], CCOc1ccccc1NC(=O)CN1CCC(NC(=O)c2ccccc2C)CC1 79.4 µM [inhibitor, single point], COC(=O)[C@@]1(C)[C@H]2C(=O)N(Cc3ccccc3)C(=O)[C@H]2[C@H]2CN=C(SCC3CC3)N21 14.1 µM [inhibitor, single point]

activity, negative = inhibition, inactive:
O=c1cc(-c2ccccc2)[nH]n1-c1nc2ccccc2[nH]1 -0.548%, CC1(c2ccc3ccccc3c2)NC(=O)N(CC(=O)N2CCN(c3ccccc3O)CC2)C1=O (stereo unspecified) -1.4%, COc1ccc2c(c1OC)C(=O)N1N=C(c3ccc(Cl)cc3)CC21 (stereo unspecified) 1.66%, Cc1ccc(C)c2nc3sc(C(=O)N4CCCc5ccccc54)c(N)c3cc12 0.317%, O=C(c1ccccc1Cc1ccccc1)N1CCN(S(=O)(=O)c2ccc(F)cc2)CC1 0.648%, NC(=O)C1CCN(Cc2cccc(OCc3ccccc3)c2)CC1 -2.27%, Cc1coc(NC(=O)CSc2nc(-c3ccncc3)cc(C(F)(F)F)c2C#N)n1 -10.6%, CCN1CCN(C(=O)CS(=O)Cc2nc(-c3cccc(C)c3)oc2C)CC1 (stereo unspecified) -8.93%, CC(=O)c1ccc(NC(=S)Nc2cccc3cnccc23)cc1 -1.03%, C=CCn1c(SCC(=O)Nc2ccc(-c3nc4ccc(C)cc4s3)cc2)nnc1-c1ccccc1 -3.26%, N/C(Cc1cccc2ccccc12)=N\O -0.487%, O=C(c1cc2cc(F)ccc2[nH]1)N1CCN(Cc2ccc3c(c2)OCO3)CC1 -5.48%, c1ccc(CCNc2ncnc3c2cnn3-c2ccccc2)cc1 -3.41%, O=C(CN(C(=O)c1csnn1)c1cccc(C(F)(F)F)c1)NC1CCCC1 -2.15%, Oc1ccc(/C=N/N=C(c2ccccc2)c2ccccc2)c(O)c1O 1.56%, CC(C)NC(=S)NN=C1c2ccccc2-c2ccccc21 -1.05%, CC(=O)c1c(N2CCCC2)[nH]c(-c2ccccc2)nc1=S 1.66%, O=C(O)C1Cc2ccccc2CN1S(=O)(=O)c1ccc2ccccc2c1 (stereo unspecified) 1.88%
